Source: doi:10.1101/440297
Results are given in words; binding and its absence hold for the method and conditions named. In cells and extracts the contact can be indirect. Some entries that bind do so weakly or less than the wild type.

Chains of the proteins cited; added tags and fusions are not shown.
UniProt P35637: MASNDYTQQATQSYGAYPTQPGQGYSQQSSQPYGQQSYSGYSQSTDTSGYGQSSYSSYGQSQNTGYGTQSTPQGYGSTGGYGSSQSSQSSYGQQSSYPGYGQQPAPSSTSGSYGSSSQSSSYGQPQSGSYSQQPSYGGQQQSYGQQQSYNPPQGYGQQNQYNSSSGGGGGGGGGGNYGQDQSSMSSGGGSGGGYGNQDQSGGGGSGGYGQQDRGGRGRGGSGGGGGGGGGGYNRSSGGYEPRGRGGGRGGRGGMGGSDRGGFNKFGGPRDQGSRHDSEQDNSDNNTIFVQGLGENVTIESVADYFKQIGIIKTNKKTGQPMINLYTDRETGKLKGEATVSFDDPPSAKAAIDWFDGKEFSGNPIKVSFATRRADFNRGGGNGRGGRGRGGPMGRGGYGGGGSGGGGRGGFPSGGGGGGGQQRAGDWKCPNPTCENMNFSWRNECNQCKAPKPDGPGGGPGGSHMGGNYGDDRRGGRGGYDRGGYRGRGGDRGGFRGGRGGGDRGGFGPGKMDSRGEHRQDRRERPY
UniProt P08621: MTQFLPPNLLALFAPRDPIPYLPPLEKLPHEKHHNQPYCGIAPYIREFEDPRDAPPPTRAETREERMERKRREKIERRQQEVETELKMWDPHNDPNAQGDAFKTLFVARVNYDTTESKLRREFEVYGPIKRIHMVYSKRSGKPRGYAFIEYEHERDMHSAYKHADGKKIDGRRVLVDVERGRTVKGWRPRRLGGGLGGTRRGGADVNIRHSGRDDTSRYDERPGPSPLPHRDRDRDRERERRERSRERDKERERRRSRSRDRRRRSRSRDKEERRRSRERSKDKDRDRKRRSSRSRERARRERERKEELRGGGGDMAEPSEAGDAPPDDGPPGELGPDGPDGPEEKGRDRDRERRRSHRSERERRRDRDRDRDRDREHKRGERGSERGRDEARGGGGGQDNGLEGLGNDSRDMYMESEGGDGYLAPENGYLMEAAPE
UniProt P09012: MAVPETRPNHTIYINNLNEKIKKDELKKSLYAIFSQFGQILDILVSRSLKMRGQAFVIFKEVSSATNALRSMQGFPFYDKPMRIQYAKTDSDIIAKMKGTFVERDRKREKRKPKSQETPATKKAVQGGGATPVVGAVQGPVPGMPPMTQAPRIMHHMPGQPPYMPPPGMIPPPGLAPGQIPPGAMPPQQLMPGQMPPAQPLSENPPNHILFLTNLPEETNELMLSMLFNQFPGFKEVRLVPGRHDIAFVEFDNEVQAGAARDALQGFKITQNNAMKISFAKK

B1: HNRNPM (protein, UniProt P52272 1-730)
chain: MAAGVEAAAEVAATEIKMEEESGAPGVPSGNGAPGPKGEGERPAQNEKRKEKNIKRGGNRFEPYANPTKRYRAFITNIPFDVKWQSLKDLVKEKVGEVTYVELLMDAEGKSRGCAVVEFKMEESMKKAAEVLNKHSLSGRPLKVKEDPDGEHARRAMQKVMATTGGMGMGPGGPGMITIPPSILNNPNIPNEIIHALQAGRLGSTVFVANLDYKVGWKKLKEVFSMAGVVVRADILEDKDGKSRGIGTVTFEQSIEAVQAISMFNGQLLFDRPMHVKMDERALPKGDFFPPERPQQLPHGLGGIGMGLGPGGQPIDANHLNKGIGMGNIGPAGMGMEGIGFGINKMGGMEGPFGGGMENMGRFGSGMNMGRINEILSNALKRGEIIAKQGGGGGGGSVPGIERMGPGIDRLGGAGMERMGAGLGHGMDRVGSEIERMGLVMDRMGSVERMGSGIERMGPLGLDHMASSIERMGQTMERIGSGVERMGAGMGFGLERMAAPIDRVGQTIERMGSGVERMGPAIERMGLSMERMVPAGMGAGLERMGPVMDRMATGLERMGANNLERMGLERMGANSLERMGLERMGANSLERMGPAMGPALGAGIERMGLAMGGGGGASFDRAIEMERGNFGGSFAGSFGGAGGHAPGVARKACQIFVRNLPFDFTWKMLKDKFNECGHVLYADIKMENGKSKGCGVVKFESPEVAERACRMMNGMKLSGREIDVRIDRNA

Biological target: Fus (human (endogenous in HeLa)) (UniProt P35637)
Assay: co-IP

binding, binds:
U1-70 (from UniProt P08621 1-437)
U1-A (from UniProt P09012 1-282)
B1
